# From patent US20150141470A1, “DIAGNOSTIC AND TREATMENT METHODS IN PATIENTS HAVING OR AT RISK OF DEVELOPING RESISTANCE TO CANCER THERAPY” (The Broad Institute, Inc., priority 2012, published 2015)
# At least one compound was matched to its structure with a doubt left. Some of these results come from one statement about several compounds together.
# Assays:
# Assay type in all cases: cell-based
# COLO-205 = assay: Pharmacologic growth inhibition assay with MAPK-pathway inhibitors in presence of forskolin, colon carcinoma line; details: COLO-205, BRAFV600E-mutant colon carcinoma
# WM266.4 [1] = assay: Immunoblots of MITF, SOX10, acetylated histone H3 and other proteins in melanoma cells
# Description: (§1) Adherent cells were washed once with ice-cold PBS and lysed passively with 1% NP-40 buffer [150 mM NaCl, 50 mM Tris pH 7.5, 2 mM EDTA pH 8, 25 mM NaF and 1% NP-40] containing 2× protease inhibitors (Roche) and 1× Phosphatase Inhibitor Cocktails I and II (CalBioChem). Lysates were quantified (Bradford assay), normalized, reduced, denatured (95° C.) and resolved by SDS gel electrophoresis on 4-20% Tris/Glycine gels (Invitrogen). […] After incubation with the appropriate secondary antibody (anti-rabbit, anti-mouse or anti-goat IgG, IRDye-linked; 1:15,000 dilution; IRDye 800CW, 1:20,000 IRDye 680LT, LiCOR), proteins were imaged using an Odyssey CLx scanner (LiCOR).
# [2] = tested on: BRAFV600E melanoma cell lines; assay: Pharmacologic growth inhibition assays with MAPK-pathway inhibitors in presence of forskolin or cAMP
# WM266.4 [3] = assay: Western blot of CREB and ERK phosphorylation; details: WM266.4, 1 hr treatment
# Description: as §1
compound,measurement,setting,value
C=C[C@@]1(C)CC(=O)[C@]2(O)[C@@]3(C)[C@@H](O)CCC(C)(C)[C@@H]3[C@H](O)[C@H](OC(C)=O)[C@@]2(C)O1 [forskolin],effect on MAPK-pathway inhibition,COLO-205,unable to affect MAPK-pathway inhibition
same,"MITF, FOS and NR4A1 protein expression reduced by sustained MEK inhibition","WM266.4 [1]; WM266.4, AZD6244 200 nM 96 hrs",rescued
same,effect on MITF protein levels under MEK inhibitor,WM266.4 [1]; panel of BRAFV600E-mutant melanoma cell lines with robust basal MITFm expression,reversed MEK-inhibitor mediated suppression of MITF protein levels
same,resistance conferred to a panel of inhibitors that target non-MAPK pathway proteins,[2],only minimal resistance
same,effect on sensitivity to MAPK pathway inhibition,[2]; A375,unaffected
same,effect on baseline growth,[2]; BRAFV600E melanoma cell lines,without affecting baseline growth
same,resistance conferred to MAPK-pathway inhibitors (fold change in GI50),"[2]; majority of BRAFV600E melanoma cell lines, 10 μM forskolin or 100 μM dbcAMP with 100 μM IBMX",≥ 10 fold
same,CREB phosphorylation,WM266.4 [3],induced CREB phosphorylation
